Results are given in words; binding and its absence hold for the method and conditions named. In cells and extracts the contact can be indirect. Some binding calls cover weakened binding; strength is not graded here. Tags and fused reporters may be left off the sequences shown.
What was measured:
[1] = target: PARP1 protein (endogenous, HEK293 cells) (Homo sapiens (Human)) (UniProt P09874); experiment: co-immunoprecipitation with anti-Flag M2-agarose from HEK293 lysate; LC-MS/MS and western blot with anti-PARP1
[2] = target: PARP1-Myc (Myc-tagged PARP1), expressed in HEK293 cells (Homo sapiens (Human)) (UniProt P09874); experiment: co-immunoprecipitation with anti-Myc antibody from co-transfected HEK293 cells; immunoblot with anti-Flag
[3] = target: PARP1-Myc (Myc-tagged PARP1), expressed in HEK293 cells (Homo sapiens (Human)) (UniProt P09874); experiment: co-immunoprecipitation with c-Myc antibody from co-transfected HEK293 cells; western blot with anti-Flag
[4] = target: PARP1 protein (endogenous, HEK293 cells) (Homo sapiens (Human)) (UniProt P09874); experiment: co-immunoprecipitation with anti-Flag M2-agarose from HEK293 lysate; silver stain, LC-MS/MS, western blot with anti-PARP1
[5] = target: PARP1 protein (endogenous, HEK293 cells) (Homo sapiens (Human)) (UniProt P09874); experiment: co-immunoprecipitation (summary in the discussion)

Amino acid sequences for entries named in this document (tags omitted). A change or cut given only in a name is not applied to a line headed by its entry.
UniProt P09874: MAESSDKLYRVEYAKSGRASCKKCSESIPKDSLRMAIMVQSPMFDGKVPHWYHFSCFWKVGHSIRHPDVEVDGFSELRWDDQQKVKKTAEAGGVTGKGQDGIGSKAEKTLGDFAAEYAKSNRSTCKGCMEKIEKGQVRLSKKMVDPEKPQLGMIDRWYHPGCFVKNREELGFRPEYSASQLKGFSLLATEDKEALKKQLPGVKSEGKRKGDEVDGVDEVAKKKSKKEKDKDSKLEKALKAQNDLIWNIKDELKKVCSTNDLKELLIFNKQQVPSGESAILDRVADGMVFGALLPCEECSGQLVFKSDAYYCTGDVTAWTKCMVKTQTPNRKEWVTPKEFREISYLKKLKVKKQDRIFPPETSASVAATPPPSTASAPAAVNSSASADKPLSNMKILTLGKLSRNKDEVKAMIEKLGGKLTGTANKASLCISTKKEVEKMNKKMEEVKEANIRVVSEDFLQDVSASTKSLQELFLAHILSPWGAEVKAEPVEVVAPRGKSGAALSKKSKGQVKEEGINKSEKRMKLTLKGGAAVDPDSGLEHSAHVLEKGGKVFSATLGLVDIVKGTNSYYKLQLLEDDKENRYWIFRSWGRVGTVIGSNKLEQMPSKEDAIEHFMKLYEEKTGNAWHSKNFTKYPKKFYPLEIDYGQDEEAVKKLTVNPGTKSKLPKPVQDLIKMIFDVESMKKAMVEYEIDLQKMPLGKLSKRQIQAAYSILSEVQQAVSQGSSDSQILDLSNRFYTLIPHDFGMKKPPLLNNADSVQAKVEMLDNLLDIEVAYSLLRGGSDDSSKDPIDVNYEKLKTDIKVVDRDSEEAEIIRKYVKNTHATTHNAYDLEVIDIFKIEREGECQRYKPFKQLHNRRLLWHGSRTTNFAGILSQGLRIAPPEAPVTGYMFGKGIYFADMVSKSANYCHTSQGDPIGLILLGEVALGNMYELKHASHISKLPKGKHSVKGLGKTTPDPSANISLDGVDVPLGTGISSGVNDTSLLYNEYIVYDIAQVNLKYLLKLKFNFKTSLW

Measured: binding

B1: Flag-tagged C12ORF48 (pCAGGSn3xFlag-C12ORF48-HA), expressed in HEK293 cells (protein, not shown: small tags and cut ends)
chain: MDVTDHYEDVRKIYDDFLKNSNMLDLIDVYQKCRALTSNCENYNTVSPSQLLDFLSGKQYAVGDETDLSIPTSPTSKYNRDNEKVQLLARKIIFSYLNLLVNSKNDLAVAYILNIPDRGLGREAFTDLKHAAREKQMSIFLVATSFIRTIELGGKGYAPPPSDPLRTHVKGLSNFINFIDKLDEILGEIPNPSIAGGQILSVIKMQLIKGQNSRDPFCKAIEEVAQDLDLRIKNIINSQEGVVALSTTDISPARPKSHAINHGTAYCGRDTVKALLVLLDEEAANAPTKNKAELLYDEENTIHHHGTSILTLFRSPTQVNNSIKPLRERICVSMQEKKIKMKQTLIRSQFACTYKDDYMISKDNWNNVNLASKPLCVLYMENDLSEGVNPSVGRSTIGTSFGNVHLDRSKNEKVSRKSTSQTGNKSSKRKQVDLDGENILCDNRNEPPQHKNAKIPKKSNDSQNRLYGKLAKVAKSNKCTAKDKLISGQAKLTQFFRL
binds: all assays above
